Here are results for four sequences from patent publication US20100261876A1 (priority 2007, published 2010).

End groups of sequences in plain letters are not given here.

A short description of data set [1]: general procedure: hybrid (solid and solution phase) peptide synthesis; 2-CTC; TBTU / 6-Cl HOBt / DIEA. Conditions: whole synthesis; for crude yield: scale of the general procedure 2-CTC 2 kg, 3.1 mol active Cl, 2-CTC 1.5 kg, 2.3 mol active.
A short description of data set [2]: general procedure: hybrid (solid and solution phase) peptide synthesis; 2-CTC resin (also Sieber amide, rink-loaded CTC, Glu37 side-chain-loaded CTC); TBTU / 6-Cl HOBt / DIEA.

In data set [1], TTWEAWDRAIAEYAARIEALLRALQE gave a crude mass of 2841 g and a crude yield of 61.6%.

In data set [1], QQEKNEAALRE came in with a crude mass of 2618 g and a crude yield of 72.6%.

In the case of QQEKNEAALREL, the step yield in data set [2] (coupling step) stood at 98.4%.

In the case of “TTWEAWDRAIAEYAARIEALLRALQEQQEKNEAALREL”, the step yield in data set [2] (late stage modification step) came out at 100%; in data set [2] (purification step, run 1), 94%; in data set [2] (purification step, run 2), 96%.
